According to the supplement of paper PMC12889115:
The list shows a part of the results. These are raw signals, not scaled to a control.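 First-pass screen: polymyxin B was added at a level that permeabilizes the Salmonella outer membrane while sparing the inner membrane. DMSO wells, with and without polymyxin B, defined maximum growth. Because plates differed from one another, each plate's data were ranked separately and the compounds with the lowest OD600 were carried forward as hits.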

Tested on: Salmonella enterica serovar Typhimurium SL1344
Assay: bacterial growth OD600 after 18 h with compound and polymyxin B; higher = more bacterial growth (less inhibition)
Conditions: 50 µM, Mueller-Hinton broth

| SMILES | bacterial growth OD600 (polymyxin B 1 µg/mL) | bacterial growth OD600 (polymyxin B 0.75 µg/mL) |
| --- | --- | --- |
| CCN(Cc1ccccc1OC)CC1CCCN(CCc2cccc(OC)c2)C1 (configuration not stated) | 0.929 | – |
| O=C(c1ccc(-c2ccccc2)cc1)C1CCCN(C(=O)CCc2ccncc2)C1 (configuration not stated) | 0.003 | – |
| COc1ccc(CCCN2C(=O)O[C@@H]3CN(c4cc(N(C)C)ncn4)C[C@@H]32)cc1 | – | 0.822 |
| CCOC(=O)C1(CCCc2ccccc2)CCN(C(=O)c2nonc2C)CC1 | 0.833 | – |
| CN(Cc1ccco1)C(=O)c1cc(Cn2ccc3ccccc32)[nH]n1 | 0.86 | – |
| O=C(NCC1(c2ccccc2)CCOCC1)c1cc(CCc2ccccc2)no1 | – | 0.91 |
| Cc1c(CN2CCCC(Nc3cccc(F)c3)C2)cnn1C (configuration not stated) | 0.936 | – |
| COc1ncccc1C(=O)N1CCCC(CCC(=O)N2CCN(Cc3ccccc3)CC2)C1 (configuration not stated) | 0.932 | – |
| O=C(Nc1ccc(N2CCC(NCCC3=CCCCC3)CC2)cc1)c1ccc2c(c1)OCO2 | – | 0.797 |
| Cc1nonc1CC(=O)N1CCc2onc(-c3ccc(F)c(F)c3)c2C1 | – | 0.952 |
| COc1ccccc1CC(=O)Nc1cnn(CC(=O)N2CCC(OCc3ccccc3)CC2)c1 | – | 0.771 |
| CO[C@H]1[C@H](NC(=O)Cc2cccs2)c2ccccc2C12CCN(Cc1ccc(F)cc1F)CC2 | – | 0.93 |
| CCN(Cc1nccn1CC)CC1CCN(CCc2ccccc2C)CC1 | 1.12 | – |
| O=C(CCC(=O)N1CCCC(Nc2ccccc2)C1)c1ccc(F)cc1 (configuration not stated) | 0.749 | – |
| COCCN(CCOC)c1ccc(-c2nc(-c3ccccc3F)no2)cn1 | 0.825 | – |
| O=C(Nc1ccnn1C1CCN(Cc2ccc(F)cc2)CC1)c1ccccc1Cl | 1.05 | – |

In another format: entries from further up
SMILES | bacterial growth OD600 (polymyxin B 1 µg/mL) | bacterial growth OD600 (polymyxin B 0.75 µg/mL)
COCCN(CCOC)c1ccc(-c2nc(-c3ccccc3F)no2)cn1 | 0.825 | –
O=C(Nc1ccnn1C1CCN(Cc2ccc(F)cc2)CC1)c1ccccc1Cl | 1.05 | –

Next part:

| SMILES | bacterial growth OD600 (polymyxin B 1 µg/mL) | bacterial growth OD600 (polymyxin B 0.75 µg/mL) |
| --- | --- | --- |
| O=C(NC1CC(=O)N(CC2CCCCC2)C1)c1cccnc1 (configuration not stated) | 0.916 | – |
| CCOC(=O)C1(Cc2cccc(Cl)c2)CCCN(C(=O)c2ccc(C)nc2)C1 (configuration not stated) | 0.742 | – |
| O=C(c1ccc(Cl)cc1F)N1CCCC(Nc2cccc(F)c2)C1 (configuration not stated) | 0.611 | – |
| Cc1c[nH]c(CN(C)C(=O)c2ccc3oc(CCCc4ccccc4)nc3c2)n1 | – | 0.751 |
| COCCNC(=O)c1ccc(OC)cc1OC1CCN(CCCC(F)(F)F)CC1 | 1.04 | – |
| O=C(c1cn(C/C=C/c2ccccc2)nn1)N1CCC(c2ccc(F)cc2)C1 (configuration not stated) | 0.023 | – |
| COc1ccc(CNC(C)c2cnn(-c3cccc(F)c3)c2C)c(F)c1 (configuration not stated) | – | 0.916 |
| O=C(NCC1CCCN(CC#Cc2ccccc2)C1)c1cccs1 (configuration not stated) | 0.719 | – |
| CCOc1ccc2nc(N3CCCN(Cc4ccc(OCCO)cc4)CC3)nc(C)c2c1 | – | 0.787 |
| COc1cccc(-c2ccc(NC(=O)C3CCCN(C(=O)CC(F)(F)F)C3)cc2)c1 (configuration not stated) | – | 0.796 |
| CN(CCC1CCOCC1)C(=O)c1cc(COc2cccc(F)c2)[nH]n1 | 1.03 | – |
| CN1CCC(CC(=O)NC2CCCN(CC3CCCCC3)C2)CC1 (configuration not stated) | 0.997 | – |
| CCC1CN(Cc2c(C)n(C)n(-c3ccccc3)c2=O)Cc2cc(OC)ccc2O1 (configuration not stated) | – | 0.867 |
| COc1ccc(OC)c(-c2cc(Cl)c3c(c2)CC(CNC(=O)CCc2cccnc2)O3)c1 (configuration not stated) | – | 0.004 |
| CC1(CCC(=O)N2CCC3(CCCN(Cc4cccc(F)c4F)C3)C2)CC1 (configuration not stated) | 0.028 | – |
| CCS(=O)(=O)c1ncc(CN(C)C(C)c2cccc(OC)c2)n1Cc1ccccc1 (configuration not stated) | 0.395 | – |
